# Laboratory results: PubChem BioAssay AID504764 (Drosophila RNAi Screening Center, 2011)
# Assay: 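Genome-wide screen for regulators of Notch-driven gene expression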 (primary screen)
# Cells: Drosophila Kc167 cells
# Knock-down reagent: long dsRNA against Drosophila genes
# Timing: about 5 days (4 days dsRNA, then 24 h after transfection)
# Challenge: transfection of constitutively active membrane-tethered Notch lacking the extracellular domain, read 24 h later
# Read-out: 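Light from a Notch-responsive E(spl)m3 luciferase reporter under active Notch, with control-promoter and no-Notch reporter wells to normalise; raw counts from paired wells a and b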
# Direction: induced reporter light, run 1, well a and induced reporter light, run 1, well b: higher = more light from the Notch target reporter with active Notch; control promoter light, run 1, well a and control promoter light, run 1, well b: higher = more light from the viral control promoter (cell number, transfection, viability); uninduced reporter light, run 1, well a: higher = more light from the Notch target reporter without active Notch
# Rule for the call: 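Wells with low control signal or poorly matching duplicates excluded; duplicates averaged; per source plate, z beyond ±2 for induced/control log2 ratio or beyond ±1.8 for induced/uninduced marks a hit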
# Calls: active = modifier hit (raised or lowered Notch signal); inactive = not a hit
# The screen tested about 22,000 reagents; this is an unselected part of those that have a named target and a result. Over the whole deposit, 403 (1.9%) are marked active. 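Unnormalised raw counts per well; ratio z-scores behind the hit calls and whether each hit raises or lowers signal are not deposited.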 Unmarked entries are inactive. A plus sign joins genes that one reagent is predicted to hit. The record does not give: the amount of reagent.
gene,PubChem SID,"induced reporter light, run 1, well a","induced reporter light, run 1, well b","control promoter light, run 1, well a","control promoter light, run 1, well b","uninduced reporter light, run 1, well a"
Atg10 (GeneID 50253),SID104185964,1.89e5,2.60e5,3.02e5,2.96e5,23095
CG33543 (GeneID 3346207),SID104180176,1.25e5,1.21e5,98100,96570,10160
CG33543 (GeneID 3346207),SID104180177,1.15e5,1.11e5,97830,68390,10430
CG6470 (GeneID 32840),SID104199786,1.24e5,1.31e5,90595,58830,10150
CG15022 (GeneID 38549),SID104188268,2.57e5,2.75e5,2.84e5,2.21e5,14042
CG6276 (GeneID 41855),SID104195799,97655,1.12e5,67440,66470,8170
CG15153 (GeneID 35080),SID104182246,90845 (active),1.09e5,1.49e5,1.59e5,8785
Shrm (GeneID 36592),SID104186229,37115,32365,35885,34390,5955
Shrm (GeneID 36592),SID104186230,91765,80735,1.17e5,1.04e5,9310
Shrm (GeneID 36592),SID104187013,31370,26255,24435,26035,2625
CG3502 + CG9863,SID104184370,1.56e5,1.37e5,1.44e5,1.37e5,9920
dpr8 (GeneID 32387),SID104199198,81015,65510,85700,74915,12220
dpr8 (GeneID 32387),SID104199392,74640,70735,1.03e5,84895,11330
dpr8 (GeneID 32387),SID104199730,1.42e5,1.08e5,1.23e5,97835,16160
dpr8 (GeneID 32387),SID104199731,1.10e5,94035,1.37e5,91405,13980
CG18269 (GeneID 33785),SID104182452,2.05e5,1.73e5,1.77e5,1.51e5,11955
CG13367 (GeneID 31013),SID104198277,1.33e5,1.32e5,2.41e5,2.09e5,10165
CG13367 (GeneID 31013),SID104198278,1.43e5,1.82e5,2.54e5,3.26e5,12810
ergic53 (GeneID 44679),SID104191181,2.28e5,2.61e5,2.20e5,1.90e5,11470
fu (GeneID 32855),SID104200125,65425,70040,59025,66320,7095
CG30479 (GeneID 36631),SID104186527,95515,1.19e5,1.25e5,1.35e5,9865
CG5265 (GeneID 42074),SID104195548,2.47e5,2.37e5,2.83e5,2.88e5,17540
Dhfr (GeneID 42003),SID104196438,2.10e5,2.16e5,1.75e5,2.13e5,15245
CR14499 (retired record) (GeneID 3885591),SID104186262,1.39e5,99325,86135,81775,8360
mRpS9 (GeneID 40932),SID104192437,1.43e5,1.51e5,1.59e5,1.45e5,9880
mRpS9 (GeneID 40932),SID104195248,95085,1.12e5,1.09e5,83770,12820
CG4957 (GeneID 34374),SID104182585,1.30e5,1.30e5,93635,1.37e5,14065
CG6380 (GeneID 35040),SID104182742,1.40e5,1.31e5,1.27e5,1.17e5,10870
CG7246 (GeneID 31833),SID104198214,1.84e5,1.68e5,2.11e5,1.97e5,9605
CG11586 (GeneID 38520),SID104187995,1.44e5,1.31e5,98000,47780,10060
Jhbp14 (GeneID 34728),SID104181780,1.70e5,2.23e5,1.76e5,1.44e5,17635
Pde8 (GeneID 37741),SID104184295,68335,59060,50845,59575,4425
CG13344 (GeneID 36541),SID104186170,1.99e5 (active),1.87e5,1.23e5,1.55e5,12628
CG7714 (GeneID 42250),SID104196092,1.99e5,1.90e5,1.80e5,1.97e5,14910
TTLL6A (GeneID 37253),SID104186410,96190,75830,1.06e5,80165,6350
Pif2 (GeneID 170876),SID104192317,66830,96130,70225,70220,6050
Fer2 (GeneID 41961),SID104195717,1.97e5,2.03e5,2.20e5,2.39e5,17940
CG10799 (GeneID 36472),SID104185794,1.00e5,96940,1.27e5,1.23e5,9675
CG8112 (GeneID 41033),SID104196169,58290,79200,64195,56830,4660
RpL37A (GeneID 44783),SID104182691,1.01e5,89925,1.43e5,1.05e5,4290
lama (GeneID 38610),SID104191153,57100,52400,40935,22285,5988
CG10472 (GeneID 38688),SID104189522,92995,85025,71580,34915,10585
CAH3 (GeneID 31804),SID104197568,1.12e5,1.04e5,2.14e5,2.20e5,9265
Tsp42Ep (GeneID 35626),SID104186663,70800,66090,62100,66420,4250
Gr39a (GeneID 117346),SID104181633,81975,91225,79965,99970,7895
Gr39a (GeneID 117346),SID104181634,66180,78625,81225,95735,8750
rswl (GeneID 37124),SID104186715,82300,86870,1.85e5,1.96e5,7370
CG32440 (GeneID 318030),SID104191272,2.31e5,2.78e5,3.15e5,3.06e5,20055
Pvf3 (GeneID 33995),SID104182076,70190,63700,73940,76735,4640
Pvf3 (GeneID 33995),SID104182077,66190,55225,62335,62260,4370
Pvf3 (GeneID 33995),SID104182078,66940 (active),58045,28325,33615,4150
Pvf3 (GeneID 33995),SID104182543,55415,55185,55515,49260,4450
